Data reported in publication PMC10140023.
These are yes or no findings as the source states them, for the method shown. For part of these data: Binding calls can cover weak binding; strength is not graded here. For part of these data: In cells and extracts the contact can be indirect.

Protein sequences, listed by entry. Tags and fused reporters are not part of them. Lines headed by an entry give the natural chain unless they say otherwise; changes in a name come on top.
UniProt P01106: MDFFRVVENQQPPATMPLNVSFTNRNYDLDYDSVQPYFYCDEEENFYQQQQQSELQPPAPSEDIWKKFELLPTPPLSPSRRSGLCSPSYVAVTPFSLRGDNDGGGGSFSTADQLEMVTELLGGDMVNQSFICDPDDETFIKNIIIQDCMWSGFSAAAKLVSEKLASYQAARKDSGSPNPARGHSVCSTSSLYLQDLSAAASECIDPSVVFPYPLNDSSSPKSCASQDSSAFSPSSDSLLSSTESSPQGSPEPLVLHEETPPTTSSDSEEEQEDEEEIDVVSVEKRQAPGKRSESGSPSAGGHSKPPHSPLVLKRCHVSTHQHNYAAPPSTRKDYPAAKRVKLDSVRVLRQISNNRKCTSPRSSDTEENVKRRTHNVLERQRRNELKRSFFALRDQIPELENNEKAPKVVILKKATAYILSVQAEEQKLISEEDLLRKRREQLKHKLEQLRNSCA
UniProt P28340: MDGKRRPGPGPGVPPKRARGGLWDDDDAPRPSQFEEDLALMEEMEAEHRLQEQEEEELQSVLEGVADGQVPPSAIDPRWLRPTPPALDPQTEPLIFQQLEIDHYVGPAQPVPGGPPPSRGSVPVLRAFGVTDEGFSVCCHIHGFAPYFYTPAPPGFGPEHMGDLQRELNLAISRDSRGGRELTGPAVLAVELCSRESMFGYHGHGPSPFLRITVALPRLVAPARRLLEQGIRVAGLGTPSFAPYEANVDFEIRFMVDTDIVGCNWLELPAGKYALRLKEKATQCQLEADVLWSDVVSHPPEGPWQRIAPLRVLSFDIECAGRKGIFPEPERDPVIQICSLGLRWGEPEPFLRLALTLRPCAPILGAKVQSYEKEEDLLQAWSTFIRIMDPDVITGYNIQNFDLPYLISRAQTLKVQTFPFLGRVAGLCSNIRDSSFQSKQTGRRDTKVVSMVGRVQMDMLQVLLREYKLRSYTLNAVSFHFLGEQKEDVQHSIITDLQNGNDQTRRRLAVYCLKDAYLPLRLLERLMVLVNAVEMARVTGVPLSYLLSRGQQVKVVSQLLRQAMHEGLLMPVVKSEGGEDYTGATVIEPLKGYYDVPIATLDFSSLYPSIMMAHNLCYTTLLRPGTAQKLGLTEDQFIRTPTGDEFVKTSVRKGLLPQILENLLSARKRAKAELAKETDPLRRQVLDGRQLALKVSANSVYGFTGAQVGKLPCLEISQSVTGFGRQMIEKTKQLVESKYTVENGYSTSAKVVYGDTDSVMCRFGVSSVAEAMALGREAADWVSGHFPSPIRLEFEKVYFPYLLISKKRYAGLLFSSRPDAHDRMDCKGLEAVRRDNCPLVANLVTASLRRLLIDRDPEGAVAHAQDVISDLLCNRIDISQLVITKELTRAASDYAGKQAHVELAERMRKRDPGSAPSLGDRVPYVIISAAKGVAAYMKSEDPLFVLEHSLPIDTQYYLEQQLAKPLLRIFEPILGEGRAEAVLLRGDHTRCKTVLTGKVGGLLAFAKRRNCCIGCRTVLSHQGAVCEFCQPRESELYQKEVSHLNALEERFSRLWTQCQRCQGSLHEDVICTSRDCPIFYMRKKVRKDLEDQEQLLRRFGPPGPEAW
UniProt Q969H0: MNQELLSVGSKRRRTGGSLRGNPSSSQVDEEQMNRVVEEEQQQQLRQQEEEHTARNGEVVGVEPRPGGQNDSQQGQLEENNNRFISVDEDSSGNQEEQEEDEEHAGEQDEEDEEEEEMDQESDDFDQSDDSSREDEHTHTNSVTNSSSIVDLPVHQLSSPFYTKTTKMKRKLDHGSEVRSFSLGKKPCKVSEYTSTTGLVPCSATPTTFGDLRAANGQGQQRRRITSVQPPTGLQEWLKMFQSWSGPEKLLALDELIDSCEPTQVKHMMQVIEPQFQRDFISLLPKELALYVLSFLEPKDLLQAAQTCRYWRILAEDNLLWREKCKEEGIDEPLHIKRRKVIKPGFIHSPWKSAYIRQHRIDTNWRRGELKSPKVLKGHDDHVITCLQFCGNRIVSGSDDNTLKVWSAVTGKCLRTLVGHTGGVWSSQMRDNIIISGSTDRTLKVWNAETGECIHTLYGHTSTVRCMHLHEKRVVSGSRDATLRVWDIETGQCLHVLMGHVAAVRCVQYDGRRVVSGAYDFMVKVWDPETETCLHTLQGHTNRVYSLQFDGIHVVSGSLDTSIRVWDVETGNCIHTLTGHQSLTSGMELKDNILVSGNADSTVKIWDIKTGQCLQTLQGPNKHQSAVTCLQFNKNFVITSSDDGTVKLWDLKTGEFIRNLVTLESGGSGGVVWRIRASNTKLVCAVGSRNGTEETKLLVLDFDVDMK

How the values were obtained:
[1] = molecular target: MYC-N-terminal-HA-tagged (amino acids 1-220) (human) (UniProt P01106); test: co-IP; tagged proteins co-expressed in 293T cells (1 x 10^6 cells); IP binding buffer (PBS, 0.3% Tween 20, 75 mM NaCl); antibody overnight at 4 °C, protein A (or A/G) magnetic beads; Western blot
[2] = molecular target: GST-MYC-1-105 (human) (UniProt P01106); test: pull-down; GST pull-down: recombinant GST-MYC fragments with lysate of 293T cells expressing Myc-FBXW7α△F and increasing recombinant His-POLD1 (0.1, 1.0, 3.0 μg); only the target purified
[3] = molecular target: GST-MYC-106-221 (human) (UniProt P01106); test: as above
[4] = molecular target: GST-MYC-1-105 (human) (UniProt P01106); test: pull-down; GST pull-down: recombinant GST-MYC fragments with increasing recombinant His-POLD1 (0.1, 1.0, 3.0 μg) in the presence of lysate of 293T cells expressing Myc-FBXW7α△F; both purified
[5] = molecular target: GST-MYC-106-221 (human) (UniProt P01106); test: as above
[6] = molecular target: GST-MYC-1-105 (human) (UniProt P01106); test: pull-down; GST pull-down with purified proteins (2 μg) in IP binding buffer, glutathione-Sepharose magnetic beads overnight at 4 °C; Western blot; both purified

GFP-POLD1 (from UniProt P28340 1-1107)
binding [1]: binds

Myc-FBXW7α△F (F-box deletion mutant) (from UniProt Q969H0)
binding [2]: binds | binding [3]: no binding

His-POLD1 (from UniProt P28340 1-1107)
binding [4]: binds | binding [5]: no binding (tested: 0.1, 1.0, and 3.0 μg His-POLD1) | binding [6]: binds
